6 molecules from publication PMC1557541 can be followed below.

No constants are given. Whether binding was seen depends on the method and setting. In cells and extracts the contact can be indirect. These calls come from enrichment with a bait or labelling near it, and not all partners need be listed. Sequences can lack the tags named with a protein.

Sequences and labels used below:
T1: TAP-tagged YGL227W (vid30) (S. cerevisiae) (UniProt P53076)
T1 sequence: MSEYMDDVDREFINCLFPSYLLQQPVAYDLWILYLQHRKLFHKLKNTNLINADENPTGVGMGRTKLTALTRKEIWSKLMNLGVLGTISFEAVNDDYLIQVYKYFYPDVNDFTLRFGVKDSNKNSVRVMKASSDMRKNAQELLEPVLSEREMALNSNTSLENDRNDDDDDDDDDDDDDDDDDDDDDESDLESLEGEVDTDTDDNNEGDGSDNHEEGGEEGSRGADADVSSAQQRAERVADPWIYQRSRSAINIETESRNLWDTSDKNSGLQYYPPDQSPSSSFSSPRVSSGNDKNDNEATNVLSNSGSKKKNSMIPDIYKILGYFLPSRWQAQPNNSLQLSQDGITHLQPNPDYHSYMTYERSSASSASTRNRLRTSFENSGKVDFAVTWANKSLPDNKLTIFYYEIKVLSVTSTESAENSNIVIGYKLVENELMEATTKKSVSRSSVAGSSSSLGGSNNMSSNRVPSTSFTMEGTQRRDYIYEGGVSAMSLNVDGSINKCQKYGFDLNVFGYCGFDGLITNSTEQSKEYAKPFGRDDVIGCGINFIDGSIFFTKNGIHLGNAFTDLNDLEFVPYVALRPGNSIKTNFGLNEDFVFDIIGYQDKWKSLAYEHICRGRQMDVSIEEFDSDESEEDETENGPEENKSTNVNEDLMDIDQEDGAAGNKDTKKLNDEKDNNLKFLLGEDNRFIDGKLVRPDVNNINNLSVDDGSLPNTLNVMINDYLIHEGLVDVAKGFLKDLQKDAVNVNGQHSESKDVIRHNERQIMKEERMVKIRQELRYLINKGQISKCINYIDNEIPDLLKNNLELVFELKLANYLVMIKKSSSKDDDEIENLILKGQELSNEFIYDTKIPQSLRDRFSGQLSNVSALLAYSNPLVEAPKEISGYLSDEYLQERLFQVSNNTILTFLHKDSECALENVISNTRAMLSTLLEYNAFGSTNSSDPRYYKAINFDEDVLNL

T2: TAP-tagged YMR135C (gid8) (S. cerevisiae) (UniProt P40208)
T2 sequence: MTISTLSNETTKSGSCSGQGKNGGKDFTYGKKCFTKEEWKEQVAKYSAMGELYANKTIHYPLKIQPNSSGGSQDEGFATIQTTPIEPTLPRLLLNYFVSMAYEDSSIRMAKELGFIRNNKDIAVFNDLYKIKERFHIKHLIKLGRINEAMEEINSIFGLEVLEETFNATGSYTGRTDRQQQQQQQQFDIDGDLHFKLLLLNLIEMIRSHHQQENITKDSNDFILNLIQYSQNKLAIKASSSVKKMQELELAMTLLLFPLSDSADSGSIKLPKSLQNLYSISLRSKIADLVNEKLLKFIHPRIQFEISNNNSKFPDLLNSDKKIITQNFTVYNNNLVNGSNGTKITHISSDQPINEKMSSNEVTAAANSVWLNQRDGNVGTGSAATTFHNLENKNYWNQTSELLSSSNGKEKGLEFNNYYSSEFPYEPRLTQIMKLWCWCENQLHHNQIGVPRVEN

B1: YMR135C (gid8) (protein, UniProt P40208 1-455)
chain: T2 sequence
B2: YIL097W (protein, UniProt P40492 1-516)
chain: MAEKSIFNEPDVDFHLKLNQQLFHIPYELLSKRIKHTQAVINKETKSLHEHTAALNQIFEHNDVEHDELALAKITEMIRKVDHIERFLNTQIKSYCQILNRIKKRLEFFHELKDIKSQNSGTSHNGNNEGTRTKLIQWYQSYTNILIGDYLTRNNPIKYNSETKDHWNSGVVFLKQSQLDDLIDYDVLLEANRISTSLLHERNLLPLISWINENKKTLTKKSSILEFQARLQEYIELLKVDNYTDAIVCFQRFLLPFVKSNFTDLKLASGLLIFIKYCNDQKPTSSTSSGFDTEEIKSQSLPMKKDRIFQHFFHKSLPRITSKPAVNTTDYDKSSLINLQSGDFERYLNLLDDQRWSVLNDLFLSDFYSMYGISQNDPLLIYLSLGISSLKTRDCLHPSDDENGNQETETATTAEKEVEDLQLFTLHSLKRKNCPVCSETFKPITQALPFAHHIQSQLFENPILLPNGNVYDSKKLKKLAKTLKKQNLISLNPGQIMDPVDMKIFCESDSIKMYPT
B3: YDR255C (protein, UniProt Q12508 1-421)
chain: MSELLDSFETEFAKFYTDSNLEETNLQKCLDHTHEFKSQLKKLKAHLNKHIQESKPEVYNKLSDKEKQKFKRKRELIIEKLSKSQRQWDHSVKKQIKYVSQQSNRFNKSTLNKLKEFDIDSVYVNKLPKETMENVNEAIGYHILRYSIDNMPLGNKNEAFQYLKDVYGITNKESTEFIEMGQIVHDLKKGDTESCLKWCSNEMESLSSNHTALSSLKFDLYTLSAMQIVKHGNPVELYYQITQNAPLDCFRHREKELMQNVVPLLTKSLIGQPIEDIDSKVNKELKECTSLFIKEYCAAKHIFFDSPLFLIVLSGLISFQFFIKYKTIRELAHVDWTTKDELPFDVKLPDFLTHFHPIFICPVLKEETTTENPPYSLACHHIISKKALDRLSKNGTITFKCPYCPVNTSMSSTKKVRFVML
B4: YBR105C (protein, UniProt P38263 1-362)
chain: MINNPKVDSVAEKPKAVTSKQSEQAASPEPTPAPPVSRNQYPITFNLTSTAPFHLHDRHRYLQEQDLYKCASRDSLSSLQQLAHTPNGSTRKKYIVEDQSPYSSENPVIVTSSYNHTVCTNYLRPRMQFTGYQISGYKRYQVTVNLKTVDLPKKDCTSLSPHLSGFLSIRGLTNQHPEISTYFEAYAVNHKELGFLSSSWKDEPVLNEFKATDQTDLEHWINFPSFRQLFLMSQKNGLNSTDDNGTTNAAKKLPPQQLPTTPSADAGNISRIFSQEKQFDNYLNERFIFMKWKEKFLVPDALLMEGVDGASYDGFYYIVHDQVTGNIQGFYYHQDAEKFQQLELVPSLKNKVESSDCSFEFA
B5: YIL017C (protein, UniProt P40547 1-921)
chain: MTVAYSLENLKKISNSLVGDQLAKVDYFLAPKCQIFQCLLSIEQSDGVELKNAKLDLLYTLLHLEPQQRDIVGTYYFDIVSAIYKSMSLASSFTKNNSSTNYKYIKLLNLCAGVYPNCGFPDLQYLQNGFIQLVNHKFLRSKCKIDEVVTIIELLKLFLLVDEKNCSDFNKSKFMEEEREVTETSHYQDFKMAESLEHIIVKISSKYLDQISLKYIVRLKVSRPASPSSVKNDPFDNKGVDCTRAIPKKINISNMYDSSLLSLALLLYLRYHYMIPGDRKLRNDATFKMFVLGLLKSNDVNIRCVALKFLLQPYFTEDKKWEDTRTLEKILPYLVKSFNYDPLPWWFDPFDMLDSLIVLYNEITPMNNPVLTTLAHTNVIFCILSRFAQCLSLPQHNEATLKTTTKFIKICASFAASDEKYRLLLLNDTLLLNHLEYGLESHITLIQDFISLKDEIKETTTESHSMCLPPIYDHDFVAAWLLLLKSFSRSVSALRTTLKRNKIAQLLLQILSKTYTLTKECYFAGQDFMKPEIMIMGITLGSICNFVVEFSNLQSFMLRNGIIDIIEKMLTDPLFNSKKAWDDNEDERRIALQGIPVHEVKANSLWVLRHLMYNCQNEEKFQLLAKIPMNLILDFINDPCWAVQAQCFQLLRNLTCNSRKIVNILLEKFKDVEYKIDPQTGNKISIGSTYLFEFLAKKMRLLNPLDTQQKKAMEGILYIIVNLAAVNENKKQLVIEQDEILNIMSEILVETTTDSSSNGNDSNLKLACLWVLNNLLWNSSVSHYTQYAIENGLEPGHSPSDSENPQSTVTIGYNESVAGGYSRGKYYDEPDGDDSSSNANDDEDDDNDEGDDEGDEFVRTPAAKGSTSNVQVTRATVERCRKLVEVGLYDLVRKNITDESLSVREKARTLLYHMDLLLKVK
B6: YGL227W (vid30) (protein, UniProt P53076 1-958)
chain: T1 sequence

The target in one experiment is T1, TAP-tagged YGL227W (vid30) (S. cerevisiae). As to the kind of experiment: affinity purification with mass spectrometry; tandem affinity purification (IgG and calmodulin columns) of the TAP-tagged protein from extracts of yeast cells (3 liters), native level of expression; SDS-PAGE with silver staining, bands identified by MALDI-TOF MS, other half of the mixture by LC-MS MS; TAP-tagged YGL227W also purified from the YDR255CΔ strain (all other members still co-purified).
B1: the binding result is reported as “binds”.

In the case of B2, the binding result is “binds”.

As to B3, the binding result is “binds”.

Regarding B4, the binding entry is on record as “binds”.

B5: the binding entry is reported as “binds”.

For a further experiment, the target named is T2, TAP-tagged YMR135C (gid8) (S. cerevisiae). Described as above.
With B2, the binding entry is “binds”.

As to B3, the binding result is “binds”.

In the case of B5, the binding result was “binds”.

In the case of B6, the binding result is on record as “binds”.
